# Test results taken from patent US20070134261A1, “Effectors of innate immunity” (priority 2001, published 2007).
# At least one peptide structure holds a part that was inferred or is arguable (an end, a ring closure or a residue). No end group written: not given here.
# Tests used:
# BALB/c mice = assay: Lethal endotoxemia in galactosamine-sensitized BALB/c mice; assay type: in vivo; conditions: 2 μg LPS; peptide 200 μg/mouse = 8 mg/kg IP 15 min after LPS; 48 hours; no peptide 10
# RAW macrophage cells = assay: Surface expression of IL-8RB, CXCR-4, CCR2, LFA-1 on RAW macrophage cells (flow cytometry); assay type: cell-based, mouse; conditions: 100 μg/ml
# Salmonella = Salmonella infection in BALB/c mice (viable bacteria in spleen); assay type: in vivo, mouse; conditions: mouse, in vivo, ip
# Method: BALB/c mice were given 1×10^5 Salmonella and cationic peptide (200 μg) by intraperitoneal injection. The mice were monitored for 24 hours at which point they were euthanized, the spleen removed, homogenized and resuspended in PBS and plated on Luria Broth agar plates with Kanamycin (50 μg/ml). The plates were incubated overnight at 37° C. and counted for viable bacteria (Table 49 and 50). CD-1 mice were given 1×10^8 S. aureus in 5% porcine mucin and cationic peptide (200 μg) by intraperitoneal injection (Table 51). The mice were monitored for 3 days at which point they were euthanized, blood removed and plated for viable counts. CD-1 male mice were given 5.8×10^6 CFU EHEC bacteria and cationic peptide (200 μg) by intraperitoneal (IP) injection and monitored for 3 days (Table 52). […] Many of the cationic peptides were shown not to be directly antimicrobial as tested by the Minimum Inhibitory Concentration (MIC) assay (Table 54).
Substance,Survival (BALB/c mice),Fold Increase in Protein Expression CXCR-4 (FACs) (RAW macrophage cells),"Fold Increase in Protein Expression, CCR2 (RAW macrophage cells; 4 hr)","Fold Increase in Protein Expression, IL-8RB (RAW macrophage cells; 4 hr)",Viable Bacteria in the Spleen (Salmonella)
RLARIVVIRVAR-NH2 [SEQ ID NO: 3],0%,1.5 ± 0.2 fold,4.5 fold,2.0 ± 0.6 fold,
KSRIVPAIPVSLL [SEQ ID NO: 7],,,,,5.4 ± 0.28 × 10^3 CFU/ml
